Test results reported in PMC4296509.
No constants are given. Whether binding was seen depends on the method and setting. Binding seen in cells or lysates may run through a third protein. Some results given as binding are weak or reduced against the parent protein; the word gives no strength. Where a sequence is shown, tags or fusion partners need not be part of it. Blank lines part the entries; values can stand above or below the binder they belong to.

Biological target: T1, GST fusion of MEG-1 (C. elegans) (UniProt Q21126)
T1 sequence: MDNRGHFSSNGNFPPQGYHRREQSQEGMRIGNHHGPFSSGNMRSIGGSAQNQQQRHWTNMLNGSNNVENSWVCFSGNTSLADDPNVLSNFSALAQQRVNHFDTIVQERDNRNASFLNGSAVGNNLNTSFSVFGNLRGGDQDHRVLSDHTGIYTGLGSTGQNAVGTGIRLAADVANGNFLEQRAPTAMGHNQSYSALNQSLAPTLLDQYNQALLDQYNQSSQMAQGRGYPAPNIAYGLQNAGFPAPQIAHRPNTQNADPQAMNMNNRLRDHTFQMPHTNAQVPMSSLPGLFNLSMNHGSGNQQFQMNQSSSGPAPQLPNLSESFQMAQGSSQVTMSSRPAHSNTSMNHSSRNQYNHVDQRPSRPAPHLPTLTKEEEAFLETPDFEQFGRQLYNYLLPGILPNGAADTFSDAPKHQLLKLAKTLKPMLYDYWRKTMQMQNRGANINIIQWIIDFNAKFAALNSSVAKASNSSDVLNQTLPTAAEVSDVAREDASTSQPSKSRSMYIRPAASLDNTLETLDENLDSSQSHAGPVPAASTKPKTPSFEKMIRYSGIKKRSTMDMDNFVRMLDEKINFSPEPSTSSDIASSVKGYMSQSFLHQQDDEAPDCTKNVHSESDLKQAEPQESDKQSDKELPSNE
Assay: pull-down; GST fusions bound to GST beads and washed; incubated with MBP fusions (E. coli lysates) at 4°C for 1 hr in 50 mM Hepes pH 7.4, 1 mM EGTA, 1 mM MgCl2, 500 mM KCl, 10% glycerol, 0.05% NP-40; eluted with 10 mM reduced glutathione; Western; only the target purified

- binding: no binding
B1: MBP fusion of PAA-1, the scaffolding subunit of PP2A (protein, UniProt Q09543 1-590)
chain: MSVVEEATDDALYPIAVLIDELRNEDVTLRLNSIRKLSTIALALGVERTRNELIQFLTDTIYDEDEVLLVLAEQLGNFTPLVGGPDHVHCLLLPLENLATVEETVVRDKAVESLRKIADKHSSASLEEHFVPMLRRLATGDWFTSRTSACGLFSVVYPRVSPAIKSELKSMFRTLCRDDTPMVRRAAAAKLGEFAKVFEKTAVIEGLHSSLTDLHVDEQDSVRLLTVESAIAFGTLLDKANKKKLIEPILIELFDDKSWRVRYMVAEKLIEIQNVLGEDMDTTHLVNMYTNLLKDPEGEVRCAATQRLQEFALNLPEDKRQNIICNSLLNVAKELVTDGNQLVKSELAGVIMGLAPLIGKEQTVSELLPIYMQLLNDQTPEVRLNIISSLDKVNEVIGAAQLSTSLLPAIVGLAEDGKWRVRLAIVQFMPLLASQLGQEFFDEKLLPLCLNWLTDHVFSIREASTLIMKELTQKFGGQWASTNIVPKMQKLQKDTNYLQRMTCLFCLNTLSEAMTQEQILKEIMPIVKDLVEDDVPNVRFNAAKSLKRIGKNLTPSTLTSEVKPLLEKLGKDSDFDVRYFSEEAKNSLGL

- binding: binds
B2: MBP fusion of PGL-1 (protein, UniProt Q9TZQ3 1-730)
chain: MEANKREIVDFGGLRSYFFPNLAHYITKNDEELFNNTSQANKLAAFVLGASKDAPGDEDILEMILPNDANAAVIAAGMDVCLLLGDKFRPKFDAAAEKLSGLGHAHDLVSVIDDDKKLGMLARKAKLKKTEDAKILQALLKVIAIDDAAEKFVELTELVSQLDLDFDVYVLTKILGLISEETSDEVDIIRDNVVNAFDSCKPLLKQLMLDGPKSEPADPFISLLMDPLEESVGKVVNHIAQLFEEASKNEGDESLVLRSQLGYQLFFLIVRSLADGKREVSKKILSGIPTSVRAEVFPGLQRSVYKSAVFLGNHIIQVLLGSKKSFEDWDVVGVAKDLESAWKRRAIAELIKKFQVSILEQCFDKPVPLIPQSPLNNDAVIDNVNKALQFALWLTEFYGSENETEALGELRFLDSTSKNLLVDSFKKFVQGINSKTHVTRIVESLEKCCLSDTPSGRKSNVQPSTSQQQDSAYTKEEMTTVHNTYSVNTKAQVLNGLSDTNSSGLLVDSKDSLSLQEISCDEVDSSTLLSSSRNIGEGVTVKAVDPVPEKVNDAQQQQTVNEIEMASDANQDTSSSASPEVAPSFSTDGWDSPTKSVALPPGMQQIDEEETTVADKDSTPQPQARAETAWGSGDATPMPLPAPTNQYKVSGFGEAKVAKGFGQFAPTSSAYGGGGGRGGYGGGDRGGRGGYGGDRGGRGGYGGGDRGGRGGYGGDRGRGGYGGRGGRGGF
